Results are given in words; binding and its absence hold for the method and conditions named. For some assays here: In cells and extracts the contact can be indirect. Some binding calls cover weakened binding; strength is not graded here.
How the values were obtained:
[1] = molecular target: T1, Bcl-W "bait" protein (UniProt Q92843); assay: yeast two-hybrid (HIS3 selection)
T1 sequence (looked up): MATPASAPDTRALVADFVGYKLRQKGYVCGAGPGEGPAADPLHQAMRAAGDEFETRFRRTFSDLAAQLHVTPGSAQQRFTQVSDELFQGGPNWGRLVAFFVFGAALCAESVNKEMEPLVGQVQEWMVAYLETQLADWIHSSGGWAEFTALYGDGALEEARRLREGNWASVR

The chains behind the UniProt entries cited, without tags or fusion partners. Where a name states a change or a piece, a line headed by the entry shows the natural chain unless it says otherwise.
UniProt P0A7C2: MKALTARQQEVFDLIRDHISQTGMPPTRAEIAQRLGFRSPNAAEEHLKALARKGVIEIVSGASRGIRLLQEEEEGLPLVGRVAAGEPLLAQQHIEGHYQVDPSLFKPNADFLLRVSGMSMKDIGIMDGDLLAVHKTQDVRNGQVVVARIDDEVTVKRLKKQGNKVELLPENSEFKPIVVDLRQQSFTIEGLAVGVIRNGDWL

[2] = molecular target: C-terminal truncate of Bcl-2 (1-211) fused to the LexA DNA binding domain (UniProt P0A7C2); assay: yeast two-hybrid (HIS3 selection)
[3] = molecular target: C-terminal truncate of Bcl-XL (1-209) fused to the LexA DNA binding domain (UniProt P0A7C2); assay: yeast two-hybrid (HIS3 selection)
[4] = molecular target: fusion protein glutathione-S-transferase-Bcl-W [GST: P08515]; assay: co-immunoprecipitation and GST pull-down (summary sentence; constructs of the co-immunoprecipitation not described)
[5] = molecular target: fusion protein glutathione-S-transferase-Bcl-XL [GST: P08515]; assay: as above
[6] = molecular target: fusion protein glutathione-S-transferase-Bcl-2 [GST: P08515]; assay: as above
[7] = molecular target: fusion protein glutathione-S-transferase-Bcl-W [GST: P08515]; assay: GST pull-down competition against 35S-Bid, peptide 5 to 20 uM
[8] = molecular target: fusion protein glutathione-S-transferase-Bcl-XL [GST: P08515]; assay: as above
[9] = molecular target: fusion protein glutathione-S-transferase-Bcl-2 [GST: P08515]; assay: as above
[10] = molecular target: fusion protein glutathione-S-transferase-Bcl-W [GST: P08515]; assay: fluorescence polarisation
[11] = molecular target: fusion protein glutathione-S-transferase-Bcl-XL [GST: P08515]; assay: fluorescence polarisation

Measured: binding

B1: short peptide of 22 amino acids (SEQ. ID. NO.1) as two-hybrid "prey" (peptide, not shown: large carriers)
chain: DTRRSMVFARHLREVGDEFRSR
binds: [1] | [2] | [3]

B2: peptide described in SEQ. ID. NO.1 (22 amino acid fragment of HC21ORF80) (peptide)
peptide: DTRRSMVFARHLREVGDEFRSR
binds: [4] | [5] | [6] | [7] | [8] | [9]

B3: peptide obtained in Example 1 labelled with fluorescein at the N-terminal end (peptide)
peptide: DTRRSMVFARHLREVGDEFRSR
modifications: fluorescein at the N-terminal end
binds: [10] | [11]

— patent US20060183688A1 (LES LABORATORIES SERVIER, published 2006)
